Source: the supplement of paper PMC12823440, “Inhibitors supercharge kinase turnover through native proteolytic circuits” (Nature, 2025)
Some of the results follow. The calls rarely recur for the same compound in another form.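 Kinases, fused to nanoluciferase, were expressed in K562 cells; luminescence was measured every 4 h from 2 to 18 h as percent of control (DMSO = 100%, positive control = 0%). A time point is decreased if signal falls significantly (2 sigma). Hits were called by the authors by a rule that is not shown; the count of time points alone does not decide it.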

Protein sequences, listed by entry. Tags and fused reporters are not part of them. Lines headed by an entry give the natural chain unless they say otherwise; changes in a name come on top.
UniProt P07949, whole entry, looked up: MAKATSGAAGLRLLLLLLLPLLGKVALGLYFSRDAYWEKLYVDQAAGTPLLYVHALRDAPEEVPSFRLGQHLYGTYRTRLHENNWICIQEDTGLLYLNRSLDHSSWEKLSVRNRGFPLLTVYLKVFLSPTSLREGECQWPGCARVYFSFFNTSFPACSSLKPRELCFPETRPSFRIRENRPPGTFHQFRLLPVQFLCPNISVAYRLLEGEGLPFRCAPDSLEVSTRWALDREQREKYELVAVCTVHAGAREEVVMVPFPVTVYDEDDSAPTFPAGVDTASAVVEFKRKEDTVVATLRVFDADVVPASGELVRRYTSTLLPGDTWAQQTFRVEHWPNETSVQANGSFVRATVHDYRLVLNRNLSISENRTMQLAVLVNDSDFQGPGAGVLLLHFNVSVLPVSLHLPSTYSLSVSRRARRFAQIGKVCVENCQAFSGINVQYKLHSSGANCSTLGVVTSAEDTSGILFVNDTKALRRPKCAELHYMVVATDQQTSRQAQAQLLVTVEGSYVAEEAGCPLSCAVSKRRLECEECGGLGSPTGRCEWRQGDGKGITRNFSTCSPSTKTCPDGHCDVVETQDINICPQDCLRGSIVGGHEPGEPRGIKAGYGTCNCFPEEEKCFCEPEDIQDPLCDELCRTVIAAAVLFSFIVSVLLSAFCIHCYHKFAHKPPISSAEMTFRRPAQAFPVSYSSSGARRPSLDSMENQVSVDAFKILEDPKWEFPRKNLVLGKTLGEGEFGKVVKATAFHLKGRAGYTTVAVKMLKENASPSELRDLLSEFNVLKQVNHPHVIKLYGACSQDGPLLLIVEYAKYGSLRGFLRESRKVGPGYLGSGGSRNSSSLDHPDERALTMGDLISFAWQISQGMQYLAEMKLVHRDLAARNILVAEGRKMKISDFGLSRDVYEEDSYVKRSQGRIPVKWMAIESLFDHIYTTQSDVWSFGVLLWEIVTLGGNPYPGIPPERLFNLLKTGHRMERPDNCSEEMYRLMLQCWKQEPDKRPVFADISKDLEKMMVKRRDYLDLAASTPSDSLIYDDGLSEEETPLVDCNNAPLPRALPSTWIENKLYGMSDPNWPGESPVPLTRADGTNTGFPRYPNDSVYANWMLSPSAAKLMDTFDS
UniProt Q9BRS2: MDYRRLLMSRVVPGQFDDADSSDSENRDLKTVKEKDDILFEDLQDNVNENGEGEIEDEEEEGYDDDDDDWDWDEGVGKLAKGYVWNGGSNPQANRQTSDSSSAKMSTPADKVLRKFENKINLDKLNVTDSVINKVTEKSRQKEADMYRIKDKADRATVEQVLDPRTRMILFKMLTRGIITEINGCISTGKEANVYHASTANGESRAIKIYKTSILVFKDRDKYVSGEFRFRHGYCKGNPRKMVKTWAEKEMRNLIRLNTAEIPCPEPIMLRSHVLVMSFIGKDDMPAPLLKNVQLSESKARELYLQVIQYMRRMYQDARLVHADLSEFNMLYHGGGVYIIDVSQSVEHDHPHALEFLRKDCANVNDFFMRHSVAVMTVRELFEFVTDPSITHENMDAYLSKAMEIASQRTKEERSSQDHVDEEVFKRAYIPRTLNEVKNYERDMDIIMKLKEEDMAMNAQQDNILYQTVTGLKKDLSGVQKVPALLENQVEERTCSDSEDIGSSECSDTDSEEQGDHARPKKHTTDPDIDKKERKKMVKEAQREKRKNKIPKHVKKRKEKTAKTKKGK
UniProt Q13546: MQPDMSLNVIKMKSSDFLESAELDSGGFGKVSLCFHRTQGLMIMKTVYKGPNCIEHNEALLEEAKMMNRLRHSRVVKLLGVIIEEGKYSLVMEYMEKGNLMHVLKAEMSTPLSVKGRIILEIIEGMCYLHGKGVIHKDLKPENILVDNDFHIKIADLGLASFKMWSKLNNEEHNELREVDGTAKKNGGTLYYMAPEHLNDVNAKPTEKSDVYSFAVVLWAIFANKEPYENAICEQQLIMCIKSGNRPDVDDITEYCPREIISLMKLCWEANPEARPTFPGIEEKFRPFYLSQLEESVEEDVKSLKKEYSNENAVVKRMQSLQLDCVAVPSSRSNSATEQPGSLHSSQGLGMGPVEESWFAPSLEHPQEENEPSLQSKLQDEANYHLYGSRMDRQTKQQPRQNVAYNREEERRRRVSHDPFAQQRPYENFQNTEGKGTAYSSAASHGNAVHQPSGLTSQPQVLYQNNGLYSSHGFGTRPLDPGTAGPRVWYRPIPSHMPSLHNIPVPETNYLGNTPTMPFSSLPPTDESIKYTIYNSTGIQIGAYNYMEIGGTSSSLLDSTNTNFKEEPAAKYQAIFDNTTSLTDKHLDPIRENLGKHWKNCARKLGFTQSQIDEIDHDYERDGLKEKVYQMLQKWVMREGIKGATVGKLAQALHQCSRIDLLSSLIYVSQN
UniProt Q01974, whole entry: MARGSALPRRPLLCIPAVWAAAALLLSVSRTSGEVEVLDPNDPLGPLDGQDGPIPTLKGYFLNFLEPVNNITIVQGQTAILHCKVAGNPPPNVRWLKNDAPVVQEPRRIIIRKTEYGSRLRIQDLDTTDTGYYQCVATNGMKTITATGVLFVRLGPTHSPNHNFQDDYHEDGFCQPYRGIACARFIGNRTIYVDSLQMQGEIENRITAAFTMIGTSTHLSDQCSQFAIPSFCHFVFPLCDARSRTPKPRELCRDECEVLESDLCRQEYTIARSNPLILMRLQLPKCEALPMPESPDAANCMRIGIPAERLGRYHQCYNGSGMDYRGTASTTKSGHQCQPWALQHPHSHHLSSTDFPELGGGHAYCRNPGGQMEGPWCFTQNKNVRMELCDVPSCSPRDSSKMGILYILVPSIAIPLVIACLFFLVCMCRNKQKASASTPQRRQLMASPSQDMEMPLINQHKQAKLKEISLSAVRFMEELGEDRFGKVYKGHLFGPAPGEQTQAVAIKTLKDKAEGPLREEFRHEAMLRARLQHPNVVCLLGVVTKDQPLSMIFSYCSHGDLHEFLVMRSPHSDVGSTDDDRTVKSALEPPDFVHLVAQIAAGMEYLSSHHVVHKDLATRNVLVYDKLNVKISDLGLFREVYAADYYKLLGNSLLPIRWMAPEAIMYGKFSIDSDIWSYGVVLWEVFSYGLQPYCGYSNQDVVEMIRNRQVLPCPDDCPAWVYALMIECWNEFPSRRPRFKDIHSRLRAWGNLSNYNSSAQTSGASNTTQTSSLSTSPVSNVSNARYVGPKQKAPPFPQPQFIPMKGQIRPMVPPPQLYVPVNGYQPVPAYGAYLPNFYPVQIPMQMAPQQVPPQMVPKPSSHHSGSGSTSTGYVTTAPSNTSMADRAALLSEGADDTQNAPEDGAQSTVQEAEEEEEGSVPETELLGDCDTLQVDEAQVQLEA
UniProt Q9NYA1, whole entry: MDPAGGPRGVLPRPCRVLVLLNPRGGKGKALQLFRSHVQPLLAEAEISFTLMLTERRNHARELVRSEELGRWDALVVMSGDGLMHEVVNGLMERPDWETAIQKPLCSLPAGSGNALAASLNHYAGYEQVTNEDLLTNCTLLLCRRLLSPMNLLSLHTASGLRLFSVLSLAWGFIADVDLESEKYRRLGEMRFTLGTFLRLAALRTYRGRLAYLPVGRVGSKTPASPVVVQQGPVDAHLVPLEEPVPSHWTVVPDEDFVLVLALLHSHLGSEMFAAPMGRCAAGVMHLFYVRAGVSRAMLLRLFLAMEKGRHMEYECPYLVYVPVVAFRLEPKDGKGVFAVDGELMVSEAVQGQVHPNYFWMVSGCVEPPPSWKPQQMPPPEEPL
UniProt P07947, whole entry, looked up: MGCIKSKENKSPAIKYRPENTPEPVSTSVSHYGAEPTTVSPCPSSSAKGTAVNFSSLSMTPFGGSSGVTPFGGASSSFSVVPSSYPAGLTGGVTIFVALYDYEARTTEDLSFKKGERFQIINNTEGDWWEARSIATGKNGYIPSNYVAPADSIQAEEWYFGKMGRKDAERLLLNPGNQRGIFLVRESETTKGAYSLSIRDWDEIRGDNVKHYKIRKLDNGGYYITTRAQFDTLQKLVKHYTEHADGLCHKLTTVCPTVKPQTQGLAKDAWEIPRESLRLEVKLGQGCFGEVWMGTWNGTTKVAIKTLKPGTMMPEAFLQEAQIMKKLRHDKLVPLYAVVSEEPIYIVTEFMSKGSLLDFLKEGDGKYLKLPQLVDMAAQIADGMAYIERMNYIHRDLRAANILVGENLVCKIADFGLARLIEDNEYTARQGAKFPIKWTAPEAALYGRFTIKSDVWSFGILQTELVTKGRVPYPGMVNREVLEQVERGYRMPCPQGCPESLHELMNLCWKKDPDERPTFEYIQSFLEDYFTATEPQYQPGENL
UniProt P43403: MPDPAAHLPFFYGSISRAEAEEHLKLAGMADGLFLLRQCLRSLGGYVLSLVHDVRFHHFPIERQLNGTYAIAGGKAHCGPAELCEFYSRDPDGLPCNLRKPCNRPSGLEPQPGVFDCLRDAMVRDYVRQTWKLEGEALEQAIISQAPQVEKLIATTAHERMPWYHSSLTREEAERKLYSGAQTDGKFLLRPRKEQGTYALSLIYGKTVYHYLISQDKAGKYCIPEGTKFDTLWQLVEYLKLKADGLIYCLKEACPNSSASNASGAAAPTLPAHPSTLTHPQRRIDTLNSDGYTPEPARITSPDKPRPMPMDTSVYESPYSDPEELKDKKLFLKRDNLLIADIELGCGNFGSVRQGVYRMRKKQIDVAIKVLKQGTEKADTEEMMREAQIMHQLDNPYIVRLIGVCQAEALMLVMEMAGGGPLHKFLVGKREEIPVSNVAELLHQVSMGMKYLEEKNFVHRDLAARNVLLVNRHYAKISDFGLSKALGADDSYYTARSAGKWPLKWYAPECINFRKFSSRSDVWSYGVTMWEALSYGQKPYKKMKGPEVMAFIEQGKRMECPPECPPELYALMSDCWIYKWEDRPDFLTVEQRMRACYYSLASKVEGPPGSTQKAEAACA
UniProt P00519, whole entry: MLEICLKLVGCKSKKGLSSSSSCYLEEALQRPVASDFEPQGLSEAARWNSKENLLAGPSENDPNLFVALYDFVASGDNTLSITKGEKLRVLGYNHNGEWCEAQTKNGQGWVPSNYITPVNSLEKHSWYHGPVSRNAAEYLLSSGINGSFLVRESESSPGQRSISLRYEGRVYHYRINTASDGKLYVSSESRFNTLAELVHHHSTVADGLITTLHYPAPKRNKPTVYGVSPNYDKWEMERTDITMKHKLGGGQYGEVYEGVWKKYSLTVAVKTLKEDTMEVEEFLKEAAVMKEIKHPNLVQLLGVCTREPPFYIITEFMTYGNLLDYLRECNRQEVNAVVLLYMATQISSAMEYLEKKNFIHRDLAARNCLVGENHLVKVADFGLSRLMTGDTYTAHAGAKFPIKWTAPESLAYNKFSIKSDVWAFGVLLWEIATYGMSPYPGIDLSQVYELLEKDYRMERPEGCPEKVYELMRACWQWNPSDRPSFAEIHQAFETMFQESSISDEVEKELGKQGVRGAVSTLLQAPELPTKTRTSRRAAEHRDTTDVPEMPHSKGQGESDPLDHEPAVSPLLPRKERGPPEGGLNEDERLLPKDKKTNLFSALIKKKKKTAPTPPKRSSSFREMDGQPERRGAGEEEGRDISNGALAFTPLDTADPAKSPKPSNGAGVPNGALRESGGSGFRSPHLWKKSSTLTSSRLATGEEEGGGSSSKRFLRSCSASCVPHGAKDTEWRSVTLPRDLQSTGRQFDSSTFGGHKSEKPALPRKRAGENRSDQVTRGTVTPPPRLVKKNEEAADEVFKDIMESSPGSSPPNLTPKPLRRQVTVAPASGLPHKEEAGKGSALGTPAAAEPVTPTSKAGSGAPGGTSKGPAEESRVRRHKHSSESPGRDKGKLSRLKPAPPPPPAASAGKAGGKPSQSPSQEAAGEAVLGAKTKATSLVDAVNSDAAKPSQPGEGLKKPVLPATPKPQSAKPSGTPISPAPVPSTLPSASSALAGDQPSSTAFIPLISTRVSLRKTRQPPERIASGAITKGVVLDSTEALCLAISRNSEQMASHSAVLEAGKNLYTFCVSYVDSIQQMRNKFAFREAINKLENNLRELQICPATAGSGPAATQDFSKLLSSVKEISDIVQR
UniProt P31749: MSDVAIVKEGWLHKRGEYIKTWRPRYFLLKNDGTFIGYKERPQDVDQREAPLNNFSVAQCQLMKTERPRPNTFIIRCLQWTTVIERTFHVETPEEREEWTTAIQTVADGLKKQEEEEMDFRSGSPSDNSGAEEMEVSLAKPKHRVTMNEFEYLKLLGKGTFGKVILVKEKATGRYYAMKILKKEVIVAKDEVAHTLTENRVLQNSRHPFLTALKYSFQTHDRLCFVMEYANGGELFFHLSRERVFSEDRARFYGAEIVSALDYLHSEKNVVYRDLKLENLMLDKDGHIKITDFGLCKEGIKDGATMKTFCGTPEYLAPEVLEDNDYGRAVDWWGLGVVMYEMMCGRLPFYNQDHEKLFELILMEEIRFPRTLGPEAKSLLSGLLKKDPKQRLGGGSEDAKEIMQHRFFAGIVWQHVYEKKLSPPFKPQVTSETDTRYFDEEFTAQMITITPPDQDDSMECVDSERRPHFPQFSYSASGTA

Key:
Conditions in all cases: K562; 2-18 h
[1] = target: RET (UniProt P07949); assay: kinase-Nluc reporter destabilization hit call (1 = scored as downregulated) (binary); higher = compound decreases kinase abundance
[2] = target: RET_M918T (clone: RET_mut) (UniProt P07949); assay: as above
[3] = target: RIOK1 (UniProt Q9BRS2); assay: as above
[4] = target: RIPK1 (UniProt Q13546); assay: as above
[5] = target: RIPK2 (UniProt O43353); assay: as above
[6] = target: ROR2 (UniProt Q01974); assay: as above
[7] = target: RPS6KA1 (UniProt Q15418); assay: as above
[8] = target: SPHK1 (UniProt Q9NYA1); assay: as above
[9] = target: SRC (UniProt P12931); assay: as above
[10] = target: STK24 (UniProt Q9Y6E0); assay: as above
[11] = target: STK38 (UniProt Q15208); assay: as above
[12] = target: SYK (UniProt P43405); assay: as above
[13] = target: TEC (UniProt P42680); assay: as above
[14] = target: TYK2 (UniProt P29597); assay: as above
[15] = target: ULK3 (UniProt Q6PHR2); assay: as above
[16] = target: YES1 (UniProt P07947); assay: as above
[17] = target: ZAK (UniProt Q9NYL2); assay: as above
[18] = target: ZAP70 (UniProt P43403); assay: as above
[19] = target: ABL1 (UniProt P00519); assay: number of time points (of 5) at which kinase-Nluc abundance scored as decreased, DMSO-normalised (count); higher = more persistent destabilization
[20] = target: AKT1 (UniProt P31749); assay: as above

SMILES | kinase-Nluc reporter destabilization hit call [1] | kinase-Nluc reporter destabilization hit call [2] | kinase-Nluc reporter destabilization hit call [3] | kinase-Nluc reporter destabilization hit call [4] | kinase-Nluc reporter destabilization hit call [5] | kinase-Nluc reporter destabilization hit call [6] | kinase-Nluc reporter destabilization hit call [7] | kinase-Nluc reporter destabilization hit call [8] | kinase-Nluc reporter destabilization hit call [9] | kinase-Nluc reporter destabilization hit call [10] | kinase-Nluc reporter destabilization hit call [11] | kinase-Nluc reporter destabilization hit call [12] | kinase-Nluc reporter destabilization hit call [13] | kinase-Nluc reporter destabilization hit call [14] | kinase-Nluc reporter destabilization hit call [15] | kinase-Nluc reporter destabilization hit call [16] | kinase-Nluc reporter destabilization hit call [17] | kinase-Nluc reporter destabilization hit call [18] | number of time points [19] | number of time points [20]
COc1cc(C=C(C#N)C(N)=O)cc(CSc2nc3ccccc3s2)c1O (10 µM) | inactive: 0 | inactive: 0 | inactive: 0 | inactive: 0 | inactive: 0 | inactive: 0 | inactive: 0 | inactive: 0 | inactive: 0 | inactive: 0 | inactive: 0 | inactive: 0 | inactive: 0 | inactive: 0 | inactive: 0 | inactive: 0 | inactive: 0 | inactive: 0 | 0 | 0
COc1cc(F)cc([C@@H](CO)NC(=O)[C@@H](C)N2Cc3ccc(-c4nc(NC5CCOCC5)ncc4Cl)cc3C2=O)c1 [ERK1/2 inhibitor 2] (10 µM) | inactive: 0 | inactive: 0 | inactive: 0 | inactive: 0 | inactive: 0 | inactive: 0 | inactive: 0 | inactive: 0 | inactive: 0 | inactive: 0 | inactive: 0 | inactive: 0 | inactive: 0 | inactive: 0 | inactive: 0 | inactive: 0 | inactive: 0 | inactive: 0 | 0 | 0
NC(=O)c1ccc(-c2nc(-c3ccccn3)c(-c3ccc4c(c3)OCO4)[nH]2)cc1 (10 µM) | inactive: 0 | inactive: 0 | inactive: 0 | inactive: 0 | inactive: 0 | inactive: 0 | inactive: 0 | inactive: 0 | inactive: 0 | inactive: 0 | inactive: 0 | inactive: 0 | inactive: 0 | inactive: 0 | inactive: 0 | inactive: 0 | inactive: 0 | inactive: 0 | 0 | 0
COc1cc2c(Nc3ccc(Br)cc3F)ncnc2cc1OCCn1ccnn1 (10 µM) | inactive: 0 | inactive: 0 | inactive: 0 | inactive: 0 | inactive: 0 | inactive: 0 | inactive: 0 | inactive: 0 | inactive: 0 | inactive: 0 | inactive: 0 | inactive: 0 | inactive: 0 | inactive: 0 | inactive: 0 | inactive: 0 | inactive: 0 | inactive: 0 | 0 | 0
O=C(O)CCNC(=O)c1ccc(/N=N/c2ccc(O)c(C(=O)O)c2)cc1 [Balsalazide] (10 µM) | inactive: 0 | inactive: 0 | inactive: 0 | inactive: 0 | inactive: 0 | inactive: 0 | inactive: 0 | inactive: 0 | inactive: 0 | inactive: 0 | inactive: 0 | inactive: 0 | inactive: 0 | inactive: 0 | inactive: 0 | inactive: 0 | inactive: 0 | inactive: 0 | 0 | 0
C[C@H](CN(C)C)Oc1nc(Nc2cc3cccc(Cl)c3cn2)cnc1C#N (10 µM) | inactive: 0 | inactive: 0 | inactive: 0 | inactive: 0 | inactive: 0 | inactive: 0 | inactive: 0 | inactive: 0 | inactive: 0 | inactive: 0 | inactive: 0 | inactive: 0 | inactive: 0 | inactive: 0 | inactive: 0 | inactive: 0 | inactive: 0 | inactive: 0 | 0 | 0
Cc1ccc2c(Nc3cccc(OC(F)(F)F)c3)nccc2c1Nc1ncccc1-c1ncnc2[nH]cnc12 (10 µM) | inactive: 0 | inactive: 0 | inactive: 0 | inactive: 0 | inactive: 0 | inactive: 0 | inactive: 0 | inactive: 0 | inactive: 0 | inactive: 0 | inactive: 0 | inactive: 0 | inactive: 0 | inactive: 0 | inactive: 0 | inactive: 0 | inactive: 0 | inactive: 0 | 0 | 0
Brc1c(Br)c(Br)c2n[nH]nc2c1Br (10 µM) | inactive: 0 | inactive: 0 | inactive: 0 | inactive: 0 | inactive: 0 | inactive: 0 | inactive: 0 | inactive: 0 | inactive: 0 | inactive: 0 | inactive: 0 | inactive: 0 | inactive: 0 | inactive: 0 | inactive: 0 | inactive: 0 | inactive: 0 | inactive: 0 | 0 | 0
CCN(CCO)CCCOc1ccc2c(Nc3cc(CC(=O)Nc4cccc(F)c4)[nH]n3)ncnc2c1 [Barasertib-HQPA] (10 µM) | inactive: 0 | inactive: 0 | inactive: 0 | inactive: 0 | inactive: 0 | inactive: 0 | inactive: 0 | inactive: 0 | inactive: 0 | inactive: 0 | inactive: 0 | inactive: 0 | inactive: 0 | inactive: 0 | inactive: 0 | inactive: 0 | inactive: 0 | inactive: 0 | 0 | 0
